From PMC7483518, “Destabilizing single chain major histocompatibility complex class I protein for repurposed enterokinase proteolysis” (Scientific Reports, 2020) come the findings set out here.

This data set deals with HLA-A*11:01 single chain protein. The data set is classed as biochemical, Human. Also on record: EZ50kDa rank out of 177: unit not given beside the values. Conditions: for EZ50kDa rank out of 177: Table 3, rank among 177 EGFR peptides.
Where [1] appears, read: rank of the peptide by EZ50kD score in the library (1 = highest).
The mark [2] stands for this setting: rank of the peptide in the library by EZ50kD score.

Read-outs that look alike come from different tables or passages of the source.

SLLDYVREH [CS1017]: the “EZ50kDa rank out of 177” value came out at 4. The same sequence yielded an EZ_Ranking under setting [1] of 4.

With SLLDYVREHK [CS1027], the “EZ50kDa rank out of 177” value is 3. The EZ_Ranking under setting [1] stood at 3.

GRAKLLGAEE [LR1026] registered an EZ_Ranking under setting [1] of 60.

The sequence IKTSPKANKE [EX1013] registered an EZ_Ranking under setting [1] of 50.

TSPKANKEI [EX1009]: the EZ_Ranking under setting [1] was found to be 40.

Regarding KTSPKANKE [EX1008], the EZ_Ranking under setting [1] was 30.

For the sequence LMPFGSLLDY [CS1022], the “EZ50kDa rank out of 177” value was 80. The EZ_Ranking under setting [1] is 80.

IMQLMPFGCL [TM1026]: the EZ_Ranking under setting [2] was determined as 90.

Consider GRAKLLGA [LR1007], for which, under setting [2], the EZ_Ranking turned out to be 100.

For “AIKTSPKANK [EX1012, EGFR exon 19 deletion-derived peptide]”, the “EZ50kDa rank out of 177” value was found to be 20. This sequence returned an EZ_Ranking under setting [1] of 20.

With GSLLDYVREHK [CS1037], the “EZ50kDa rank out of 177” value is 5. Also, under setting [1], the EZ_Ranking worked out at 5.

On to KITDFGRAKLLG [LR1044], for which the “EZ50kDa rank out of 177” value is given as 7. Besides, the EZ_Ranking under setting [1] is 7.

Regarding QLMPFGSLLDY [CS1032], the “EZ50kDa rank out of 177” value was determined as 1. For the same sequence, under setting [1], the EZ_Ranking is reported as 1.

Under setting [1], RAKLLGAE [LR1008] showed an EZ_Ranking of 70.

As to MQLMPFGCLLDY [TM1050], the “EZ50kDa rank out of 177” value is listed as 8. Besides, the EZ_Ranking under setting [1] worked out at 8.

Turning to “VAIKTSPKANK [EX1018, EGFR exon 19 deletion-derived peptide]”, the “EZ50kDa rank out of 177” value worked out at 6. Further, under setting [1], the EZ_Ranking is recorded as 6.
